Experimental data from patent US8236279B2, “Bisaminoethanethiol-targeting ligand conjugates and compositions” (priority 1999, dated 2012).
For at least one compound, name, drawing or mass did not settle the structure.

Tested on: Breast Tumor-Bearing Rats (13762 tumor cell line)
Assay: Tissue distribution (biodistribution) studies in breast tumor-bearing rats
Description: Studies performed 14 to 17 days after implantation when tumors reached approximately 1 cm diameter. Animals were anesthetized with ketamine (10-15 mg/rat, intraperitoneally) before each procedure.
The injected mass of each ligand was 10 μg per rat. At 20 min, 1, 2 and 4 h following administration of the radiopharmaceuticals, the anesthetized animals were sacrificed and the tumor and selected tissues were excised, weighed and counted for radioactivity by a gamma counter (Packard Instruments, Downers Grove, Ill.). The biodistribution of tracer in each sample was calculated as percentage of the injected dose per gram of tissue wet weight (% ID/g). Counts from a diluted sample of the original injectate were used for reference. Tumor/nontarget tissue count density ratios were calculated from the corresponding % ID/g values. Student-t test was used to assess the significance of differences between two groups.
Studies performed 14 to 17 days after implantation when tumors reached approximately 1 cm diameter. Rats were anesthetized with ketamine (10-15 mg/rat, intraperitoneally) before each procedure.
In tissue distribution studies, each animal was injected intravenously with 370-550 KBq of ^99mTc-EC-MN or ^99mTc-EC (n=3/time point). The injected mass of ^99mTc-EC-MN was 10 μg per rat. At 0.5, 2 and 4 hrs following administration of the radiotracers, the rats were sacrificed and the selected tissues were excised, weighed and counted for radioactivity. The biodistribution of tracer in each sample was calculated as percentage of the injected dose per gram of tissue wet weight (% ID/g). Tumor/nontarget tissue count density radios were calculated from the corresponding % ID/g values. […] Student t-test was used to assess the significance of differences between groups.
(§1) At 0.5, 2 and 4 hrs following administration of the radiotracers, the rats were sacrificed and the selected tissues were excised, weighed and counted for radioactivity. The biodistribution of tracer in each sample was calculated as percentage of the injected dose per gram of tissue wet weight (% ID/g). Tumor/nontarget tissue count density ratios were calculated from the corresponding % ID/g values. Student t-test was used to assess the significance of differences between groups.
as §1, with “hours” for “hrs”, “values.” for “values. Student t-test was used to assess the significance of differences between groups.”
Studies were performed 14 to 17 days after implantation when tumors reached approximately 1 cm diameter. Rats were anesthetized with ketamine (10-15 mg/rat, intraperitoneally) before each procedure.
In tissue distribution studies, each animal was injected intravenously with 10-20 μCi (per rat) or 1-2 μCi (per mouse) of ^99mTc-EC or ^99mTc-EC-DG (n=3/time point). The injected mass of ^99mTc-EC-DG was 1 mg per rat. At 0.5, 2 and 4 hours following administration of the radiotracers, the rodents were sacrificed and the selected tissues were excised, weighed and counted for radioactivity. The biodistribution of tracer in each sample was calculated as percentage of the injected dose per gram of tissue wet weight (% ID/g). Tumor/nontarget tissue count density ratios were calculated from the corresponding % ID/g values.

With `O=C(O)[C@@H]1C[S][99Tc]23(=[O])[S]C[C@@H](C(=O)O)[N]2CC[N]13` [^99mTc-EC, ^99mTc-L,L-ethylenedicysteine] the “Biodistribution: Blood” value (20 min after i.v. injection) was 0.435 ∀ 0.029 % of injected dose per organ o, the “Biodistribution: Intestine” value (20 min after i.v. injection) was 0.173 ∀ 0.029 % of injected dose per organ o and the “Biodistribution: Kidney” value (20 min after i.v. injection) was 7.914 ∀ 0.896 % of injected dose per organ o. For the same compound, the “Biodistribution: Liver” value (20 min after i.v. injection) was 0.508 ∀ 0.062 % of injected dose per organ o, the “Biodistribution: Lung” value (20 min after i.v. injection) was 0.272 ∀ 0.019 % of injected dose per organ o and the “Biodistribution: Muscle” value (20 min after i.v. injection) was 0.060 ∀ 0.006 % of injected dose per organ o. The “Biodistribution: Stomach” value (20 min after i.v. injection) was 0.136 ∀ 0.060 % of injected dose per organ o, the “Biodistribution: Thyroid” value (20 min after i.v. injection) was 0.219 ∀ 0.036 % of injected dose per organ o and the “Biodistribution: Tumor” value (20 min after i.v. injection) was 0.342 ∀ 0.163 % of injected dose per organ o. The “Biodistribution: Urine” value (20 min after i.v. injection) was 9.124 ∀ 0.808 % of injected dose per organ o, the Tumor/Blood ratio (20 min after i.v. injection) was 0.776 ∀ 0.322 and the Tumor/Muscle ratio (20 min after i.v. injection) was 5.841 ∀ 3.253. The Tumor uptake value (0.5 hours) was 0.342∀0.163 % ID/g, the “Biodistribution: Blood” value (1 h after i.v. injection) was 0.273 ∀ 0.039 % of injected dose per organ o and the “Biodistribution: Intestine” value (1 h after i.v. injection) was 0.787 ∀ 0.106 % of injected dose per organ o. The “Biodistribution: Kidney” value (1 h after i.v. injection) was 8.991 ∀ 0.268 % of injected dose per organ o, the “Biodistribution: Liver” value (1 h after i.v. injection) was 0.367 ∀ 0.006 % of injected dose per organ o and the “Biodistribution: Lung” value (1 h after i.v. injection) was 0.187 ∀ 0.029 % of injected dose per organ o. The “Biodistribution: Muscle” value (1 h after i.v. injection) was 0.043 ∀ 0.002 % of injected dose per organ o, the “Biodistribution: Stomach” value (1 h after i.v. injection) was 0.127 ∀ 0.106 % of injected dose per organ o and the “Biodistribution: Thyroid” value (1 h after i.v. injection) was 0.229 ∀ 0.118 % of injected dose per organ o. The “Biodistribution: Tumor” value (1 h after i.v. injection) was 0.149 ∀ 0.020 % of injected dose per organ o, the “Biodistribution: Urine” value (1 h after i.v. injection) was 11.045 ∀ 6.158 % of injected dose per organ o and the Tumor/Blood ratio (1 h after i.v. injection) was 0.544 ∀ 0.004. For the same compound, the Tumor/Muscle ratio (1 h after i.v. injection) was 3.414 ∀ 0.325, the “Biodistribution: Blood” value (2 h after i.v. injection) was 0.211 ∀ 0.001 % of injected dose per organ o and the “Biodistribution: Intestine” value (2 h after i.v. injection) was 0.401 ∀ 0.093 % of injected dose per organ o. The “Biodistribution: Kidney” value (2 h after i.v. injection) was 9.116 ∀ 0.053 % of injected dose per organ o, the “Biodistribution: Liver” value (2 h after i.v. injection) was 0.286 ∀ 0.073 % of injected dose per organ o and the “Biodistribution: Lung” value (2 h after i.v. injection) was 0.144 ∀ 0.002 % of injected dose per organ o. For the same compound, the “Biodistribution: Muscle” value (2 h after i.v. injection) was 0.028 ∀ 0.009 % of injected dose per organ o, the “Biodistribution: Stomach” value (2 h after i.v. injection) was 0.037 ∀ 0.027 % of injected dose per organ o and the “Biodistribution: Thyroid” value (2 h after i.v. injection) was 0.106 ∀ 0.003 % of injected dose per organ o. For the same compound, the “Biodistribution: Tumor” value (2 h after i.v. injection) was 0.115 ∀ 0.002 % of injected dose per organ o, the “Biodistribution: Urine” value (2 h after i.v. injection) was 13.192 ∀ 4.505 % of injected dose per organ o and the Tumor/Blood ratio (2 h after i.v. injection) was 0.546 ∀ 0.010. The Tumor/Muscle ratio (2 h after i.v. injection) was 4.425 ∀ 1.397, the Tumor uptake value (2 hours) was 0.115∀0.002 % ID/g and the “Biodistribution: Blood” value (4 h after i.v. injection) was 0.149 ∀ 0.008 % of injected dose per organ o. For the same compound, the “Biodistribution: Intestine” value (4 h after i.v. injection) was 0.103 ∀ 0.009 % of injected dose per organ o, the “Biodistribution: Kidney” value (4 h after i.v. injection) was 7.834 ∀ 1.018 % of injected dose per organ o and the “Biodistribution: Liver” value (4 h after i.v. injection) was 0.234 ∀ 0.016 % of injected dose per organ o. For the same compound, the “Biodistribution: Lung” value (4 h after i.v. injection) was 0.120 ∀ 0.012 % of injected dose per organ o, the “Biodistribution: Muscle” value (4 h after i.v. injection) was 0.019 ∀ 0.001 % of injected dose per organ o and the “Biodistribution: Stomach” value (4 h after i.v. injection) was 0.043 ∀ 0.014 % of injected dose per organ o. For the same compound, the “Biodistribution: Thyroid” value (4 h after i.v. injection) was 0.083 ∀ 0.005 % of injected dose per organ o, the “Biodistribution: Tumor” value (4 h after i.v. injection) was 0.096 ∀ 0.005 % of injected dose per organ o and the “Biodistribution: Urine” value (4 h after i.v. injection) was 8.693 ∀ 2.981 % of injected dose per organ o. The Tumor/Blood ratio (4 h after i.v. injection) was 0.649 ∀ 0.005, the Tumor/Muscle ratio (4 h after i.v. injection) was 5.093 ∀ 0.223 and the Tumor uptake value (4 hours) was 0.097∀0.005 % ID/g.
